For one data set, the target named is BSA (UniProt P02769). The data set is described as follows: competition: displacement of y-CDs-APT from Fe3O4-cDNA, ratiometric fluorescence. The settings on record: 1000 ng/mL protein, Fe3O4-cDNA (S2); conjugated to yellow carbon dots (y-CDs); attachment end not stated; probe hybridisation 25 °C, 60 min; DNase I amplification; commercial protein; label: y-CDs (emission 580 nm); single-stranded DNA.

Amino acid sequences for entries named in this document (tags omitted). Residues count along the entry.
UniProt P02769, 25-607: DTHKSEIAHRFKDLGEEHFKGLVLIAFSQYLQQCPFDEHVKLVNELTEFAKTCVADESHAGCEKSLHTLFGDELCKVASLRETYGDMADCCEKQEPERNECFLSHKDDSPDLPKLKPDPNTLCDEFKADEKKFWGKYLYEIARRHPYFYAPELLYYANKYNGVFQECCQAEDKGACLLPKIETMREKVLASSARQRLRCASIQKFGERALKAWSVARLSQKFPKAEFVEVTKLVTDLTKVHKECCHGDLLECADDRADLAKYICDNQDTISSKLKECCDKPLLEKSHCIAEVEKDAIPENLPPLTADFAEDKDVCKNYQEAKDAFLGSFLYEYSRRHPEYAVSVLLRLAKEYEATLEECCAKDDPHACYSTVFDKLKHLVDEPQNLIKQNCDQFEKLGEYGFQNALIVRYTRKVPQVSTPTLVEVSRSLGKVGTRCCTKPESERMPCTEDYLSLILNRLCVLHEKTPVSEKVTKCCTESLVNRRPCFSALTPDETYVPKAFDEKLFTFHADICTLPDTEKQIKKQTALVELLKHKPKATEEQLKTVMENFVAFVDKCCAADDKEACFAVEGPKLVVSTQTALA

Data set [1] concerns DPPIV (also printed DDPIV). The description is as above. The conditions noted are these: 1000 ng/mL protein, Fe3O4-cDNA (S2); conjugated to yellow carbon dots (y-CDs); attachment end not stated; probe hybridisation 25 °C, 60 min; DNase I amplification; commercial protein; label: y-CDs (emission 580 nm); single-stranded DNA.

A negative result means that nothing was seen under these conditions. For some assays here: For at least one entry, the source does not settle the construct or the ends of the probe.

“ATCTAACTGCTGCGCCGCCGGGAAAATACTGTACGGTTAGA [APT (PTK7 aptamer), as y-CDs-APT]”: the binding result (in the data set with BSA; in data set [1]) was “no binding” in each case.

Source of the values: paper PMC7885398.
